Laboratory results: PMC7947682
No constants are given. Whether binding was seen depends on the method and setting. Binding seen in cells or lysates may run through a third protein. Some results given as binding are weak or reduced against the parent protein; the word gives no strength. Where a sequence is shown, tags or fusion partners need not be part of it.

Target: T1, FLAG-FOXP2 (197-408) (human) (UniProt O15409)
T1 sequence: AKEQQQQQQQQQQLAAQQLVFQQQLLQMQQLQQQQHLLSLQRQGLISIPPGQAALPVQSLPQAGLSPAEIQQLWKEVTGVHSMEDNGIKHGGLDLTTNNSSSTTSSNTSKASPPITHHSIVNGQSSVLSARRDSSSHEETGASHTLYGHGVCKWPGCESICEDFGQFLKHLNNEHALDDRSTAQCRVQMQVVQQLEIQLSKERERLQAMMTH
Test: co-IP; anti-FLAG affinity gel in whole cell extracts of HEK293T cells transfected with pHis-FOXP2 and FLAG-FOXA2 fragments, or pCMV-FOXA2 and FLAG-FOXP2 fragments; blot with anti-FOXP2, anti-FOXA2 or anti-FLAG

binding: binds
B1: FOXA2 (pCMV-FOXA2) (protein, UniProt Q9Y261-2 1-463)
chain: MHSASSMLGAVKMEGHEPSDWSSYYAEPEGYSSVSNMNAGLGMNGMNTYMSMSAAAMGSGSGNMSAGSMNMSSYVGAGMSPSLAGMSPGAGAMAGMGGSAGAAGVAGMGPHLSPSLSPLGGQAAGAMGGLAPYANMNSMSPMYGQAGLSRARDPKTYRRSYTHAKPPYSYISLITMAIQQSPNKMLTLSEIYQWIMDLFPFYRQNQQRWQNSIRHSLSFNDCFLKVPRSPDKPGKGSFWTLHPDSGNMFENGCYLRRQKRFKCEKQLALKEAAGAAGSGKKAAAGAQASQAQLGEAAGPASETPAGTESPHSSASPCQEHKRGGLGELKGTPAAALSPPEPAPSPGQQQQAAAHLLGPPHHPGLPPEAHLKPEHHYAFNHPFSINNLMSSEQQHHHSHHHHQPHKMDLKAYEQVMHYPGYGSPMPGSLAMGPVTNKTGLDASPLAADTSYYQGVYSRPIMNSS
